System: MDA-MB-231 cells
Experiment: Live cell imaging with fluorescent probe 12
Assay type: cell-based, human
Protocol: MDA-MB-231 cells were seeded on fibronectin-coated coverslips at 70% confluency in a 48-well plate and cultured at 37 °C and 5% CO2. After 24 h, culture medium was replaced with fresh medium containing a 20 µM competitor or an equal volume of DMSO vehicle for 30 min at 37 °C and 5% CO2, followed by addition of 0.2 µM (final concentration) fluorescent probe 12. After 1 h incubation at 37 °C and 5% CO2, the coverslips were mounted onto a glass slide with a mounting medium with or without 0.5 µg/ml DAPI.
The fluorescent images were acquired with a confocal microscope (Leica TCS SP5) using 405 nm excitation and 562 nm excitation. For the ER co-localization studies, 1 uM ER-Tracker™ Blue-White DPX was added to the medium after 1 h incubation with probe 12. After 5 min incubation, the coverslips were mounted onto a glass slide and the images were acquired as described above.
CT7 photo-affinity labeling and click chemistry were done as previously described.14 Briefly, SRMs (sheep rough microsomes, isolated as described in reference15) containing 100 nM Sec61 were treated with 10 µM ipomoeassin F/mycolactone or 1% DMSO for 30 min at 0°C, followed by incubation with 100 nM CT7 for 10 min RT. Samples were then photolyzed for 10 min and crosslinked proteins were detected by click chemistry, SDS-PAGE, and in-gel fluorescent scanning (Typhoon Trio, GE Healthcare).
In Vitro Membrane Translocation Assays.
Unless otherwise stated, all cDNAs are of human origin and as previously described: CytB5OPG2,16 GypC,17 ppαF (Saccharomyces cerevisiae),16 ppcecAOPG2 (Hyalophora cecropia),16 PPL (Bos Taurus),16 Sec61βOPG216 and VCAM1.17 Ii encodes residues 17 to 232 of the short form of human HLA class II histocompatibility antigen gamma chain (Ii; P04232, isoform 2). Linear DNA templates were generated by PCR and transcribed into RNA using T7 or SP6 polymerase (Promega).
In vitro translation and translocation into ER microsomes […]

C/C=C(\C)C(=O)O[C@@H]1[C@@H](O)[C@@H]2O[C@H]3[C@H](O[C@@H](CCCCC)CCCCCCC(=O)CCC(=O)OC[C@@H](O2)[C@H]1OC(=O)/C=C/c1ccc(OCc2cn(CCOCCOCCOCCNS(=O)(=O)c4ccc(-c5c6ccc(=[N+](CC)CC)cc-6oc6cc(N(CC)CC)ccc56)c(S(=O)(=O)[O-])c4)nn2)cc1)O[C@H](C)[C@H](OC(C)=O)[C@@H]3O [compound 12]
subcellular localization of fluorescent probe (MDA-MB-231 cells, costained with ER or nucleus markers): strongly labeled the ER | time to give clear images (probe at 20 nM): > 3 h | time to stain cells (probe at 2 μM): ≤ 30 min

— PMC6627486, “Ipomoeassin F Binds Sec61α to Inhibit Protein Translocation” (Journal of the American Chemical Society, 2019)
